Reference: PubChem BioAssay AID1053208 (Peter MacCallum Cancer Centre, 2014)
Screen: 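Synthetic lethal interactions between gene loss and doxorubicin in osteosarcoma cells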 (primary screen). System: mouse osteosarcoma cells, early-passage culture from an engineered mouse model of fibroblastic bone tumour. Reagents: siRNA pool against mouse genes, 40 nM. Timing: about 120 h (48 h before drug, then 72 h with drug). Treatment: doxorubicin 100 nM for 72 h, roughly 30-40% inhibitory dose. Measurement: 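Viability read as ATP luminescence after 72 h of 100 nM doxorubicin or none, duplicate wells averaged, scaled to non-targeting siRNA, then expressed as robust z-scores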. Reading the numbers: viability z-score with doxorubicin and doxorubicin viability vs non-targeting: higher = more viable cells under doxorubicin; viability z-score without drug: higher = more viable cells with knock-down alone; z-score of drug to no-drug ratio: higher = less drug sensitisation by knock-down. Active means: 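Called active if knock-down leaves viability unchanged without drug (z within -2 to 2) but lowers it with doxorubicin (z at or under -2)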.
This is an unselected part of about 17,000 deposited reagents. 788 of them (4.7%) count as active. 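Calls rest on z-score classes alone; an extra cut-off of viability at most 70% of control was not applied to them.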 Unmarked entries are inactive. No sequences are given here.

no.	target	combined z-score class	viability z-score with doxorubicin	viability z-score without drug	z-score of drug to no-drug ratio	doxorubicin viability vs non-targeting
1	Tymp	no change with or without drug	-1.57	-1.52	-0.56	0.8
2	Ppp3r1	no change with or without drug	0.79	-0.34	1.24	1.01
3	Elfn1	no change with or without drug	-1.12	-1.18	-0.34	0.84
4	Defb21	high cell count without drug only	-0.67	2.36	-1.91	0.88
5	Tspan4	no change with or without drug	0.56	0.51	0.34	0.99
6	Nmur2	no change with or without drug	1.01	0	1.12	1.03
7	Igf2	no change with or without drug	0.11	0.17	0.11	0.95
8	Polr3h	no change with or without drug	-1.24	-0.84	-0.67	0.83
9	Odf4	no change with or without drug	0.45	-0.17	0.67	0.98
10	Cmtr2	no change with or without drug	1.35	0	1.57	1.06
11	Cers5	no change with or without drug	-0.45	0.51	-0.67	0.9
12	Rhot2	no change with or without drug	1.91	0.51	1.69	1.11
13	Tpgs1	no change with or without drug	0.22	1.52	-0.67	0.96
14	Capza3	no change with or without drug	0.79	-0.17	1.01	1.01
15	Or6aa1	no change with or without drug	-0.9	-1.01	-0.11	0.86
16	Tlcd4	no change with or without drug	-1.57	0.51	-1.8	0.8
17	Hs3st3b1	no change with or without drug	0.67	1.85	-0.45	1
18	Slc1a5	no change with or without drug	0.9	0.51	0.67	1.02
19	Mis18bp1	no change with or without drug	-1.57	-0.17	-1.46	0.8
20	Casp6	no change with or without drug	1.69	1.85	0.56	1.09
21	Dner	no change with or without drug	0.9	0.34	0.79	1.02
22	Lce1e	high cell count without drug only	0.67	2.19	-0.56	1
23	Ankrd42	no change with or without drug	0.22	1.69	-0.79	0.96
24	Zfp691	high cell count with doxorubicin only	3.04	1.85	1.8	1.21
25	Tfap2c	no change with or without drug	1.57	1.85	0.45	1.08
26	Vsir	no change with or without drug	0	-0.84	0.67	0.94
27	Piezo2	no change with or without drug	0.67	0.67	0.34	1
28	Bcl7c	no change with or without drug	0.9	-0.17	1.24	1.02
29	Bace2	no change with or without drug	-1.8	-0.51	-1.46	0.78
30	Prl2b1	no change with or without drug	1.12	0.17	1.12	1.04
31	Gclm	no change with or without drug	-0.67	-0.67	-0.11	0.88
32	Magohb	no change with or without drug	0.45	0.17	0.45	0.98
33	Uroc1	no change with or without drug	0.22	0.51	0	0.96
34	Hpn	no change with or without drug	-0.22	1.35	-1.01	0.92
35	Sarm1	no change with or without drug	-0.67	-0.17	-0.45	0.88
36	Sfi1	low cell count with doxorubicin only (active)	-2.36	0.17	-2.47	0.73
37	Yipf2	no change with or without drug	1.12	1.85	0	1.04
38	Nedd1	no change with or without drug	-0.67	-1.18	0.22	0.88
39	Ppp1cc	no change with or without drug	0.45	-0.17	0.67	0.98
40	Pou6f1	no change with or without drug	1.12	0.84	0.67	1.04
41	B2m	no change with or without drug	0.45	0.17	0.45	0.98
42	Papss1	no change with or without drug	0.45	0.17	0.45	0.98
43	Pccb	no change with or without drug	0.56	-0.17	0.79	0.99
44	Klhl15	no change with or without drug	0.22	0.84	-0.22	0.96
45	Mon2	no change with or without drug	0.9	0.17	0.9	1.02
46	Hcfc1	no change with or without drug	1.91	0.17	2.02	1.11
47	Rsrc1	no change with or without drug	0.56	1.35	-0.22	0.99
48	Rnf10	low cell count with and without drug	-2.25	-2.19	-0.9	0.74
49	Fbxl2	no change with or without drug	0.67	0.17	0.67	1
50	Oprm1	no change with or without drug	-1.35	-0.17	-1.24	0.82
51	Kcnab2	no change with or without drug	0.56	-0.17	0.79	0.99
52	Cimip2a	no change with or without drug	0.11	1.18	-0.56	0.95
53	Or5m13b	no change with or without drug	-0.45	0.84	-0.9	0.9
54	Sdhaf2	no change with or without drug	0.45	-0.34	0.79	0.98
55	Emcn	no change with or without drug	1.35	0.17	1.35	1.06
56	Cryl1	no change with or without drug	-0.67	1.18	-1.35	0.88
57	Alg6	no change with or without drug	-0.22	-0.51	0.22	0.92
58	Dennd5a	no change with or without drug	0.45	1.18	-0.22	0.98
59	Acaa2	no change with or without drug	1.01	1.69	0	1.03
60	Hspe1	no change with or without drug	1.12	-0.17	1.46	1.04
61	Defb4	no change with or without drug	-0.22	0.67	-0.56	0.92
62	Taf1	no change with or without drug	-0.45	-1.85	1.01	0.9
63	Klhl5	no change with or without drug	0	0	0.11	0.94
